Measured values published in the supplement of paper PMC6078165.
Values are relative to the signal before dosing, not to a vehicle control; the signal also falls without drug.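 Cells used are triple-negative breast cancer lines, either basal-like or mesenchymal-like, grown in the absence of fibroblasts. Lower red signal means mitochondrial integrity is lost, a surrogate for apoptosis.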

Tests used:
Experiment in all cases: relative JC-1 red fluorescence (viability) vs pre-drug, monoculture (fraction); higher = more viable cancer cells
Conditions in all cases: coculture fibroblast: none (monoculture)
Hs578T = test system: Hs578T
Experimental: (§1)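 JC-1 labelled TNBC cells grown in monoculture (density kept equal with unlabelled cancer cells) in 384-well plates in FluoroBrite medium, treated with one of 42 anticancer drugs at 0.1, 1, 10 or 100 uM. JC-1 red fluorescence (mitochondrial integrity, surrogate of apoptotic death) was read by plate reader every 8 h for 72 h. Values are normalised to each well's pre-drug value, with background from alamethicin. The stock of one drug was tenfold lower, so its dose labels may be too high. Monoculture values are repeated alongside each fibroblast plate and are averaged here.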

HCC1143 = test system: HCC1143
Experimental: as §1

MDAMB468 = test system: MDAMB468
Experimental: as §1

BT20 = test system: BT20
Experimental: as §1

O=C(O)C1(C(=O)O)CCC1.[NH2-].[NH2-].[Pt+2] [Carboplatin]
relative JC-1 red fluorescence
Conditions | 8 h | 16 h | 24 h | 32 h | 40 h | 48 h | 56 h | 64 h | 72 h
BT20, 0.1 µM | 0.938 | 0.855 | 0.753 | 0.674 | 0.616 | 0.587 | 0.556 | 0.54 | 0.524
BT20, 1 µM | 0.922 | 0.851 | 0.846 | 0.763 | 0.721 | 0.697 | 0.66803 | 0.662 | 0.653
BT20, 10 µM | 0.956 | 0.842 | 0.806 | 0.729 | 0.687 | 0.673 | 0.64 | 0.623 | 0.607
BT20, 100 µM | 0.881 | 0.833 | 0.825 | 0.759 | 0.706 | 0.692 | 0.676 | 0.672 | 0.68
HCC1143, 0.1 µM | 0.8902 | 0.82 | 0.758 | 0.712 | 0.665 | 0.633 | 0.608 | 0.594 | 0.58
HCC1143, 1 µM | 0.853 | 0.7767 | 0.723 | 0.686 | 0.64 | 0.617 | 0.598 | 0.583 | 0.568
HCC1143, 10 µM | 0.8786 | 0.7965 | 0.73211 | 0.6719 | 0.621 | 0.583 | 0.5554 | 0.534 | 0.522
HCC1143, 100 µM | 0.845 | 0.7936 | 0.75 | 0.709 | 0.674 | 0.662 | 0.646 | 0.639 | 0.63
Hs578T, 0.1 µM | 0.841 | 0.717 | 0.705 | 0.634 | 0.61 | 0.606 | 0.583 | 0.591 | 0.581
Hs578T, 1 µM | 0.7748 | 0.676 | 0.629 | 0.5404 | 0.49262 | 0.465 | 0.44 | 0.438 | 0.432
Hs578T, 10 µM | 0.7981 | 0.6823 | 0.634 | 0.5726 | 0.531 | 0.5137 | 0.488 | 0.483 | 0.469
Hs578T, 100 µM | 0.781 | 0.7 | 0.712 | 0.622 | 0.583 | 0.583 | 0.576 | 0.602 | 0.614
MDAMB468, 0.1 µM | 0.895 | 0.836 | 0.773 | 0.711 | 0.652 | 0.633 | 0.598 | 0.57 | 0.557
MDAMB468, 1 µM | 0.8556 | 0.7409 | 0.7336 | 0.6912 | 0.641 | 0.6427 | 0.625 | 0.6156 | 0.599
MDAMB468, 10 µM | 0.86487 | 0.797 | 0.7578 | 0.6928 | 0.6546 | 0.6315 | 0.595 | 0.567 | 0.554
MDAMB468, 100 µM | 0.827 | 0.778 | 0.739 | 0.619 | 0.549 | 0.533 | 0.496 | 0.482 | 0.465
